These are yes or no findings as the source states them, for the method shown. In cells and extracts the contact can be indirect. Some entries that bind do so weakly or less than the wild type.
What was measured:
[1] = target: FLAG-tagged Act1 (Act1-FLAG), expressed in HEK293FT cells (UniProt O43734); assay: co-IP; whole cell extracts of transfected HEK293FT cells; IP with anti-FLAG antibody and Protein G Sepharose overnight; lysis buffer 10 mM Hepes, 50 mM NaCl, 1 mM EDTA, 10% glycerol, 1% Triton; Western blot
[2] = target: FLAG-tagged Act1 (Act1-FLAG), expressed in HeLa cells (UniProt O43734); assay: proximity ligation; HeLa cells transfected with FLAG-tagged Act1 and HA-tagged TICAM-1, fixed with 4% PFA, Duolink in situ PLA kit
[3] = target: endogenous TICAM-1 of HeLa cells (human (endogenous in HeLa)) (UniProt Q8IUC6); assay: co-IP; whole cell extracts of HeLa cells, untreated or treated with 100 ng/ml IL-17A; IP with anti-TICAM-1 antibody or control IgG; Western blot
[4] = target: endogenous Act1 of HeLa cells (human (endogenous in HeLa)) (UniProt O43734); assay: proximity ligation; HeLa cells stimulated with 0 or 100 ng/ml IL-17A for 15 min, fixed; anti-Act1 and anti-TICAM-1 antibodies; Duolink in situ PLA kit
[5] = target: endogenous Act1 of HeLa cells (human (endogenous in HeLa)) (UniProt O43734); assay: co-IP; whole cell extracts of HeLa cells (untransfected, transfected with empty, TICAM-1-HA or TICAM-1-TIR-HA vector, or TICAM-1 KO), untreated or treated with IL-17A (50 or 100 ng/ml); IP with anti-Act1 antibody or control IgG; Western blot

By UniProt entry, the sequences of proteins in these tests, tags left out. Where a name states a change or a piece, a line headed by the entry shows the natural chain unless it says otherwise.
UniProt O43734: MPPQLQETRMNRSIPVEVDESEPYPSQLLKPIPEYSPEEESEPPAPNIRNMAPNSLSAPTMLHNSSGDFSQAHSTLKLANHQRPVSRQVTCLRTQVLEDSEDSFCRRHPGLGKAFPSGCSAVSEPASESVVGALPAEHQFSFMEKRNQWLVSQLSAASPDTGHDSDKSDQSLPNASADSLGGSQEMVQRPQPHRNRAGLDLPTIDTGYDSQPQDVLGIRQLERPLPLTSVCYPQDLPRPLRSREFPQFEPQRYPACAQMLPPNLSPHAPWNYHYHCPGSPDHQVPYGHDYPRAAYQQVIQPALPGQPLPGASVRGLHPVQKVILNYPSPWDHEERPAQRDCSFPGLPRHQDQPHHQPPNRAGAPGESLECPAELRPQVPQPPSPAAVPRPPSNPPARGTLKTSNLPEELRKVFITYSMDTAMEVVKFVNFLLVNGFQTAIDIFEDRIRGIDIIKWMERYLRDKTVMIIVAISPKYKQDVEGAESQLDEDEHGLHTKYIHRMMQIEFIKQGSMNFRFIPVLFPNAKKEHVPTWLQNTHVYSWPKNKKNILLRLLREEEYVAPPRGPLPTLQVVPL
UniProt Q8IUC6: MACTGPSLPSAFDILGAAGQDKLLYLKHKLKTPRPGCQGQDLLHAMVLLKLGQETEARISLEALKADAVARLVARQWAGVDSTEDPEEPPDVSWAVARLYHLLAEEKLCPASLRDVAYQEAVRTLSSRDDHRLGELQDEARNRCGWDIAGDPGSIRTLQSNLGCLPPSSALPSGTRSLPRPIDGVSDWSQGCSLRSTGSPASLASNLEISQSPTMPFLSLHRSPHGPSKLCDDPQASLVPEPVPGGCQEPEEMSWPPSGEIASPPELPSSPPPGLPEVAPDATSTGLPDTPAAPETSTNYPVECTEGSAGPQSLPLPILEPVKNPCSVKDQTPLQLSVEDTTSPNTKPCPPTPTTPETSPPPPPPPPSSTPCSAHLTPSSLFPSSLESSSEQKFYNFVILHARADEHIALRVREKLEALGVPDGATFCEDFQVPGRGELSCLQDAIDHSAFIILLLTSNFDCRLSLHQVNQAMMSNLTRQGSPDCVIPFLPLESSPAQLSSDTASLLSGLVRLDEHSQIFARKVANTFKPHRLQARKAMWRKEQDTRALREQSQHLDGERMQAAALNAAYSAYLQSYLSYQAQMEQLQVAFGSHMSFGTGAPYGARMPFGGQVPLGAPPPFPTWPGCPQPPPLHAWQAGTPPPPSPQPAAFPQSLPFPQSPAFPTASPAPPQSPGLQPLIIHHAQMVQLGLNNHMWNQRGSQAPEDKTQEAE

## HA-tagged TICAM-1 (TICAM-1-HA), expressed in HEK293FT cells (from UniProt Q8IUC6 1-712)
[1]
  binding: binds

## HA-tagged TICAM-1 (TICAM-1-HA), expressed in HeLa cells (from UniProt Q8IUC6 1-712)
[2]
  binding: binds

## HA-tagged TIR domain of TICAM-1 (TICAM-1-TIR-HA), expressed in HEK293FT cells (from UniProt Q8IUC6 393-553) (domain or fragment)
[1]
  binding: binds

## endogenous Act1 of HeLa cells (from UniProt O43734 1-574)
[3]
  binding: binds

## endogenous TICAM-1 of HeLa cells (from UniProt Q8IUC6 1-712)
[4]
  binding: binds
[5]
  binding: binds

— PMC8616538
